These results are taken from publication PMC4238974.

Results are given in words; binding and its absence hold for the method and conditions named. In cells and extracts the contact can be indirect. Binding can be weak; no strength is given. Where a sequence is shown, tags or fusion partners need not be part of it.

The target of the assay is MEK-2-mCherry (Neurospora crassa). Description: co-IP; lysate of 5 hr-old N. crassa germlings; anti-mCherry antibody covalently bound to Protein G Dynabeads, overnight at 4°C, washed three times with PBS; blot probed with anti-GFP antibodies.

B1: HAM-5^1-351-GFP (WD40 domain only) (domain or fragment, UniProt V5IN79 1-351)
chain: MSVPGHISRSRTGSIPASSKGRTAHMQDFAMAPTPSAVPRYFEPCAATASMFLYAQGSSIVCCHHDSLSIERRFARHTEEVQLLAVDNLSEMGTGRLVVSYDAGQTAIVWDLMTGDEVARFASYENLTCAAWMHNGNVAFGNIQGNVILFEPTTSEHISARTIDQIAITAIAPAADCRTFAIGYQNGSLLIATLQPRFTILHNLTTSRGPSPIVTLAWHASSSRQKSDMLAVQTHDGDLRVWSVSKQYNADDPAKVVRILKRTENYLTGPNWMGWSKNGRIIQYSEGETISWDVRTKHVTYDTIPTLEHARGLAVYGPGATLFTLGANNSVQQFDLNAPAMMVNNVQHPAN
Take B1: the binding entry is “no binding”.

B2: HAM-5^Δ67-348-GFP (HAM-5 without the WD40 motifs) (protein, UniProt V5IN79)
chain: MSVPGHISRSRTGSIPASSKGRTAHMQDFAMAPTPSAVPRYFEPCAATASMFLYAQGSSIVCCHHDPANMLPPSPPISLEEQEKSQTVMHHNADHGVPIAIHADLSESDDHMSPLARLVQGQSEPDRYRPTSPTSSRSRSSVSITSSNSNTQGRNQYAPSAVSRGMTENTYISAGSSLRSGLPGQDHRYRRDRESLSTTSSVSMGSSNYRSRRPSRLRHEVPRSPDDAKVVDLFKFTKSRLQDMPYKTPQISDGVRLTNDDLRRQMLSTIFGWNKEIEDLIRDEMSRHPLGSTNRILLAKWLGDITTDIMAMGSENMTSSDWMLLALSGIGGQASQHKLGRAYVQRLLESGDVHAAATIMIGLGDHNDAIEIYVSHKKYMEALILTCLFFPSTWERQVQIVRKWGEWAVQHGQQQLAIRCFACTGHESTEPWTSPSAQQITFGSISATVNEVTSPPLSPPARNHGPQRSVAKNSALKLITTFGDNKSKFFSGHDDGRTPIAAGATPIVQSALSPGGADPTTAVLRNNRSQFNTPSSARPPNGGFGRHRLPSIGEATQDNRELLTAISKPVGDPYANIMSFEVSDHRTPGYDLPRAQTASPRVFKDAKAPPPPSPSPAAVAALMDGRQRRNGSRSRIPEGLDLSLPVHNDTRHDEPSSPEQSGNSISNAQYHWPSRRKGPGSVASSATSASATSSVRGYRSHVPGKSMDKYYHSLEAAGSSRNARGTSRDGHGNGRDTSRSRRNDGDLSRDRGRGSSRGYTPKGGKRSPKSPVPMSPEDLINLATPREDLEQLGHGKGRLIDFSDEQDQPSVAKKVTTRRETSRVRMASRGASRNGRSSSRARSSERRKPPALDLRGREASREGSRQRSPSSPVPMSGQAAHFYGSEDEEDYRRALEDREKFRQRHNRSVSKNGRGESITSPISGRGHDWGGRERSTSRQRSDKRSESHQTDRRQRIPAPMPTPAPMQLVTDSSGDLKVMMNERQLKKEQAQRELEERRRSLARRPSAPPILHPDELTPARLDTVMELPSTVFVPPRREDMPARSASVDPNSQGAGRSMYANRGPSIGLPATPKAMRLVLGSDASRNNVPVPAIPANFQQSSAASSNQASPDKVSQRQVELKQQEVEPPMKSPAMLLPSTVYTPPTSAFNRPFIQRSMSAPPQDLVPPQAGALSNLRGFHAQQPSVGGEPKPLMGRRPSHDAGRNDGPIPPPPPPPPAPPMLRELQHLAAPPPPPPAPLPHLAGAKPVVYGGSSGMIEIVMDDDQPQQPPQQPQQQPPPPPMLLPSTSYTPVNTAPIPKEIVVPILSPPAPSSRNGHARGRSSIDHSIGGRISRVTERMRSASRSRGAMRDNQAAPMIPAPYESVPMPGMSQSMNFHMRAAAAAAAQQQPGQSDFKTGLHHSEMI
For the molecule B2, the binding result is “binds”.
